Laboratory results taken from publication PMC2581630, “S-Nitrosylation of Surfactant Protein-D Controls Inflammatory Function” (PLoS Biology, 2008).
No constants are given. Whether binding was seen depends on the method and setting. Some binding calls cover weakened binding; strength is not graded here.

Key:
[1] = molecular target: SP-D in bronchoalveolar lavage (BAL) of Sprague-Dawley rats (rat (endogenous in BAL of Sprague-Dawley rats)) (UniProt P35248); assay: native gel or EMSA; BAL of untreated (control), saline- or bleomycin-treated (8 U/kg) Sprague-Dawley rats, day 4; native gel and Western blot for SP-D
[2] = molecular target: rat recombinant SP-D (surfactant protein D) (rat) (UniProt P35248); assay: condition: only denatured in SDS with dithiothreitol or β-mercaptoethanol; reducing SDS-PAGE with Western blot; recombinant proteins denatured with mercaptoethanol or dithiothreitol, SDS-PAGE, Western blot with SP-D antibody; both purified

| binding [1] | binding [2] | Binder |
| --- | --- | --- |
| binds |  | SP-D in bronchoalveolar lavage (BAL) of Sprague-Dawley rats (protein, UniProt P35248 20-374) AEMKTLSQRSITNTCTLVLCSPTENGLPGRDGRDGREGPRGEKGDPGLPGPMGLSGLPGPRGPVGPKGENGSAGEPGPKGERGLVGPPGSPGISGPAGKEGPSGKQGNIGPQGKPGPKGEAGPKGEVGAPGMQGSAGAKGPAGPKGERGAPGEQGAPGNAGAAGPAGPAGPQGAPGSRGPPGLKGDRGAPGDRGIKGESGLPDSAALRQQMEALNGKLQRLEAAFSRYKKAALFPDGQSVGDKIFRAANSEEPFEDAKEMCRQAGGQLASPRSATENAAVQQLVTAHSKAAFLSMTDVGTEGKFTYPTGEALVYSNWAPGEPNNNGGAENCVEIFTNGQWNDKACGEQRLVICEF |
|  | no binding | rat recombinant SP-D (surfactant protein D) (natural protein, UniProt P35248 20-374, looked up, surfactant protein D (SP-D), rat, recombinant; It has the N-terminal cysteines 15 and 20 and the head domain, so it is probably the whole mature chain; also called rSP-D; RrSP-D; source: recombinant) AEMKTLSQRSITNTCTLVLCSPTENGLPGRDGRDGREGPRGEKGDPGLPGPMGLSGLPGPRGPVGPKGENGSAGEPGPKGERGLVGPPGSPGISGPAGKEGPSGKQGNIGPQGKPGPKGEAGPKGEVGAPGMQGSAGAKGPAGPKGERGAPGEQGAPGNAGAAGPAGPAGPQGAPGSRGPPGLKGDRGAPGDRGIKGESGLPDSAALRQQMEALNGKLQRLEAAFSRYKKAALFPDGQSVGDKIFRAANSEEPFEDAKEMCRQAGGQLASPRSATENAAVQQLVTAHSKAAFLSMTDVGTEGKFTYPTGEALVYSNWAPGEPNNNGGAENCVEIFTNGQWNDKACGEQRLVICEF |
